According to the supplement of paper PMC10849652:
Some of the results follow.

Amino acid sequences for entries named in this document (tags omitted). A change or cut given only in a name is not applied to a line headed by its entry.
UniProt Q08495: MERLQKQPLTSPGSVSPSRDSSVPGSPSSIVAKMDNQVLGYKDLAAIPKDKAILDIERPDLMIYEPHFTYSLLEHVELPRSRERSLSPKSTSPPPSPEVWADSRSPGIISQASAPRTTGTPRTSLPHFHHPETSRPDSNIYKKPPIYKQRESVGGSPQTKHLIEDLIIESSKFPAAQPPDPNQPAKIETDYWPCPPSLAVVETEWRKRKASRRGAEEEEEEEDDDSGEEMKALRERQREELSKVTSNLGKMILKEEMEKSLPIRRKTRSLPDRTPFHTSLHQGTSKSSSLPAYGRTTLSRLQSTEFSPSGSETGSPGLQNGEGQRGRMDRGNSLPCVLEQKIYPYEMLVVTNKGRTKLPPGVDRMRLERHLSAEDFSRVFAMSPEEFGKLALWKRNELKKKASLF
UniProt Q5QJE6: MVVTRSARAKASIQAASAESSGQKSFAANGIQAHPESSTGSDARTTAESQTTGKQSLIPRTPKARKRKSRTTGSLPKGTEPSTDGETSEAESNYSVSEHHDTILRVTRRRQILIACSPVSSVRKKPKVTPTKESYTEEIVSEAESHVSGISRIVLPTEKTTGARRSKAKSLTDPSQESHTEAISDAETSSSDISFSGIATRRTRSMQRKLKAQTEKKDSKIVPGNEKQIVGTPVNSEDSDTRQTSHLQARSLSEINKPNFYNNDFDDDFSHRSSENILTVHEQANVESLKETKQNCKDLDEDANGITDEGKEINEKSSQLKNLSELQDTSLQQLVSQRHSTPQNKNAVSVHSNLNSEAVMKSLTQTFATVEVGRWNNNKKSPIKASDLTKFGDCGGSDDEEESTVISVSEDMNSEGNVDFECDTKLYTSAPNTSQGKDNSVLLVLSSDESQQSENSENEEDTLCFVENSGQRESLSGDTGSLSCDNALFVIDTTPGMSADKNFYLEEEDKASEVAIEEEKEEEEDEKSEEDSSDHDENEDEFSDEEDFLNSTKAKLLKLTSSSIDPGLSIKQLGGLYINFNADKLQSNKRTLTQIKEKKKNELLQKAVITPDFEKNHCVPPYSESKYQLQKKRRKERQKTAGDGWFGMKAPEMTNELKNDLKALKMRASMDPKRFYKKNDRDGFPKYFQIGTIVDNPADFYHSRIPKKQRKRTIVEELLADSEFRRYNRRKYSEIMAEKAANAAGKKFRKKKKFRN
UniProt Q07687: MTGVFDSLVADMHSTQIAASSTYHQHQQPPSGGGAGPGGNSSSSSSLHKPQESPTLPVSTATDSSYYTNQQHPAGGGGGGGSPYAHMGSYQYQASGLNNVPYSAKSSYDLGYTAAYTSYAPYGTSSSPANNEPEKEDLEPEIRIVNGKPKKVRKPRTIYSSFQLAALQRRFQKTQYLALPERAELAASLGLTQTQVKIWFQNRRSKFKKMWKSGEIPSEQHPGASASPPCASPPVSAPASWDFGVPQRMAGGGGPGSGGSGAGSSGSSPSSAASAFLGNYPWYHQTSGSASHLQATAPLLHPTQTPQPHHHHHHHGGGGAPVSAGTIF
UniProt Q6UX07: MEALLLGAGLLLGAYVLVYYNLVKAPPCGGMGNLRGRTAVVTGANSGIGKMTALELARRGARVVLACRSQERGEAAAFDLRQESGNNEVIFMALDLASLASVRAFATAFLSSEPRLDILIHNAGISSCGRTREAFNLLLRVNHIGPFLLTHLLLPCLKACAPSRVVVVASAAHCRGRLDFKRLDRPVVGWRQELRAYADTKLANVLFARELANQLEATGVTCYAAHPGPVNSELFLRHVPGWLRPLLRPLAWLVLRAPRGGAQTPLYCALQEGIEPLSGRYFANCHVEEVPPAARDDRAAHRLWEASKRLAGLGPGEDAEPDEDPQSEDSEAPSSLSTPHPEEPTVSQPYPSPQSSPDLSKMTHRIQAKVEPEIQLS
UniProt Q9UBS3: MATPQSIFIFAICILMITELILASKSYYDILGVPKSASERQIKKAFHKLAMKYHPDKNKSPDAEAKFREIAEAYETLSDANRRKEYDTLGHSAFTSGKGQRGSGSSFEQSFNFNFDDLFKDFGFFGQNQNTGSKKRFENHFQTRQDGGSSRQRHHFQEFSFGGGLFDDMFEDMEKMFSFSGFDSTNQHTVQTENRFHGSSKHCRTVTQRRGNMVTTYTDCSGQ
UniProt Q96HP0: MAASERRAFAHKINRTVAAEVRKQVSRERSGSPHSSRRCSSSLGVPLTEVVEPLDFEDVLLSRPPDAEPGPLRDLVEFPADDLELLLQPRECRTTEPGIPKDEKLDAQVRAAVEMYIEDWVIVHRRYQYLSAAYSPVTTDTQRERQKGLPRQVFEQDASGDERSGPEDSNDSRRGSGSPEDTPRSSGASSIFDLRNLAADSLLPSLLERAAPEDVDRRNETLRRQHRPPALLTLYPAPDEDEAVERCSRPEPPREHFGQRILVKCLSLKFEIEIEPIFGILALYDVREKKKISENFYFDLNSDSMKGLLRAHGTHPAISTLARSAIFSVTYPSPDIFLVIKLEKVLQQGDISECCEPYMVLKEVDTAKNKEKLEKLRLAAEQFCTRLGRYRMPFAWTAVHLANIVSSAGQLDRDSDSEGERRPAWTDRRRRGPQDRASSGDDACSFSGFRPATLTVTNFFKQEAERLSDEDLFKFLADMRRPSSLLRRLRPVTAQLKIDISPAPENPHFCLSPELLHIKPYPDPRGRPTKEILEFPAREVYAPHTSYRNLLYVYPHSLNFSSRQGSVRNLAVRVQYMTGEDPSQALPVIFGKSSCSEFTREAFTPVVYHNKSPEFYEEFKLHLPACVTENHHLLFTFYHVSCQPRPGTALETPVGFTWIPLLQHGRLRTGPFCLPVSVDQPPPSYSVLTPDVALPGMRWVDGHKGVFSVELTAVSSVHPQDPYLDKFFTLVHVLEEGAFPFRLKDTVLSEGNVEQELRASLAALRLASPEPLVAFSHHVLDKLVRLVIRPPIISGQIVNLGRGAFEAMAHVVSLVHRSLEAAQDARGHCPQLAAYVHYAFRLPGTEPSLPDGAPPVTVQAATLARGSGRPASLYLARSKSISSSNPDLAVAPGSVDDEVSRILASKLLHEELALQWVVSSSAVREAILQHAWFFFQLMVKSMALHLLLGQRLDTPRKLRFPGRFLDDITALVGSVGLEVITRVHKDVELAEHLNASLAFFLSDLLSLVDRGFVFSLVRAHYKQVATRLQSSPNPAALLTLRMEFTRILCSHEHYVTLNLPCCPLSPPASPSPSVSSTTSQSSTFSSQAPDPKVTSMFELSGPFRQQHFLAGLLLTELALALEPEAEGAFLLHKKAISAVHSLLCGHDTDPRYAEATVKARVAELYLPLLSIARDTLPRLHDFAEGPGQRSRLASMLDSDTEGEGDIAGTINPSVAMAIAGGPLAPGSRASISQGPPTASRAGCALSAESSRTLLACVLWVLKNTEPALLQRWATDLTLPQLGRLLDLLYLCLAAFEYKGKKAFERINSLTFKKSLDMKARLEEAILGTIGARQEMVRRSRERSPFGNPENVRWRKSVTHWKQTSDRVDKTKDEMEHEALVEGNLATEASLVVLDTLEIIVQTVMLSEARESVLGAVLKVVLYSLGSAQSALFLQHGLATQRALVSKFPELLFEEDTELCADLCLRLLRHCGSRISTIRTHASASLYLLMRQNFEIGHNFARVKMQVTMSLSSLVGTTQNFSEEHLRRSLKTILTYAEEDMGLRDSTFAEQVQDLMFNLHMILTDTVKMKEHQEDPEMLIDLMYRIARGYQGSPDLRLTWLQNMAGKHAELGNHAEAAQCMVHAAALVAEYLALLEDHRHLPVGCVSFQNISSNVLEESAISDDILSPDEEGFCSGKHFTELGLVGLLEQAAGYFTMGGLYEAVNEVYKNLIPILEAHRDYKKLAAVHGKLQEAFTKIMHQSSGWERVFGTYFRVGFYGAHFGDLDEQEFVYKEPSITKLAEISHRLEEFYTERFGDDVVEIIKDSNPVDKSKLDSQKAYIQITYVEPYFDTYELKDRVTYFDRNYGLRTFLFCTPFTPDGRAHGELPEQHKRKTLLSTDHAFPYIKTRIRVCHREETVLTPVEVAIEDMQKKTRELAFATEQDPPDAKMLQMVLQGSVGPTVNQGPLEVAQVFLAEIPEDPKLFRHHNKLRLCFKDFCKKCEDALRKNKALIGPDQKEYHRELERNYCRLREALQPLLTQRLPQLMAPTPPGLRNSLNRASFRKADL
UniProt Q8N5I4: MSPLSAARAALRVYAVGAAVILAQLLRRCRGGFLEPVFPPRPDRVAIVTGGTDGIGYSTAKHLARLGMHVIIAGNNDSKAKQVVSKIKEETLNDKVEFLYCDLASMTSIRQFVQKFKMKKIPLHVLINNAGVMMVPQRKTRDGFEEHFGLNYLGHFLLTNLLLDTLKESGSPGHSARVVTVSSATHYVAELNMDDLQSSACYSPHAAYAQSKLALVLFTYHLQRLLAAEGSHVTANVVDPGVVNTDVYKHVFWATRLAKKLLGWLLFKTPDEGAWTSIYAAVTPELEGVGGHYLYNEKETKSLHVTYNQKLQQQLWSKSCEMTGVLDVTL
UniProt Q9H147: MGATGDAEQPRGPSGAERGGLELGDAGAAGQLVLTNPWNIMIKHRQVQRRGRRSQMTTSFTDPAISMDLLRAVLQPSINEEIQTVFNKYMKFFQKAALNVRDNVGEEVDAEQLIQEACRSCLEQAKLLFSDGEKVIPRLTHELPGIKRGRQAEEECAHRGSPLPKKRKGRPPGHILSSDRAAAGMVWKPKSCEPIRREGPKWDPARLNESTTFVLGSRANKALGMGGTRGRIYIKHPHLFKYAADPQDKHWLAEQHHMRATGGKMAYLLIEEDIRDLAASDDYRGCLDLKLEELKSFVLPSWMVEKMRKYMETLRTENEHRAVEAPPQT
UniProt Q96EY1: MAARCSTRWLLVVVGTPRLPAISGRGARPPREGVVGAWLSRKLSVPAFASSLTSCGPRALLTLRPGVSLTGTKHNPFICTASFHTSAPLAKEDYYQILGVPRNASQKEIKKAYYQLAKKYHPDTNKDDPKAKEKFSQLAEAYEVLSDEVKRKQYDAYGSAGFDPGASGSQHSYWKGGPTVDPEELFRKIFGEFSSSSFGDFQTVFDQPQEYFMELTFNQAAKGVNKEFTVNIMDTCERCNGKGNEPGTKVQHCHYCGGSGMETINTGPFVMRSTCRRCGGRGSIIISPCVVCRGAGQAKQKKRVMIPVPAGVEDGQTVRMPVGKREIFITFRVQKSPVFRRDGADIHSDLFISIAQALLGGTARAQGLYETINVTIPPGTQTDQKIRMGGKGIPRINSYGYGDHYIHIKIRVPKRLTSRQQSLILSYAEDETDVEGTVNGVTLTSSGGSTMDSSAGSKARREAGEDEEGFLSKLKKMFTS
UniProt P25686: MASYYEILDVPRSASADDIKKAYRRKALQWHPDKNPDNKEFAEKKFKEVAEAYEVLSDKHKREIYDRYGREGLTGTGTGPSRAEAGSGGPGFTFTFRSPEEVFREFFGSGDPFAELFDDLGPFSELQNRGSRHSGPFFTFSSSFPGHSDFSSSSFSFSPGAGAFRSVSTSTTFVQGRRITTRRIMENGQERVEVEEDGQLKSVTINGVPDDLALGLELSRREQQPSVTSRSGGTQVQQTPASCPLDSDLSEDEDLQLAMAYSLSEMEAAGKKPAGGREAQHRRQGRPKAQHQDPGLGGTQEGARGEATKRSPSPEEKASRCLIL

Compound: CNC(=O)C1=CC=CC=C1NC2=NC(=NC=C2Cl)NC3=C(C=C(C=C3)N4CCOCC4)OC
Assay: log2 fold change, soluble protein after heating vs DMSO (PISA); higher = thermal stabilisation; K562 lysate, 10 uM; active = over 0.2 and 3.5 SD of the protein, either way, in both replicates (recomputed)
Procedure, shortened: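 The values are log-two fold changes in thermal stability compared with solvent controls and come from duplicates. They were obtained by TMTpro 16plex LC-MS/MS, with channel sums equalised, on the supernatant after 21,000xg for 90 min. That supernatant came from crude K562 extract at 1 mg/mL protein treated with 10 μM compound for 30 min, heated for 3 min across 48°C-58°C, pooled and brought to 0.5% NP-40 at 4°C.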

log2 fold change, inactive:
DNHD1 (UniProt Q96M86) -0.047
DMTN isoform 2 (UniProt Q08495) -0.043
DNPEP (UniProt B9ZVU2) 0.016
DNTTIP2 (UniProt Q5QJE6) -0.057
DLX2 (UniProt Q07687) 0.235
DHRS13 (UniProt Q6UX07) -0.083
DNAJB9 (UniProt Q9UBS3) 0.012
DNMT3A (UniProt Q9Y6K1) -0.032
DOCK6 (UniProt Q96HP0) -0.027
DOT1L isoform 1 (UniProt Q8TEK3) 0.253
DHRSX (UniProt Q8N5I4) -0.114
DNTTIP1 (UniProt Q9H147) 0.022
DNAJA3 isoform 2 (UniProt Q96EY1) -0.037
DNAJB2 (UniProt P25686) -0.039

Three neighbouring entries out of the list so far, for reference:
log2 fold change, inactive:
DNAJB9 (UniProt Q9UBS3) 0.012
DNMT3A (UniProt Q9Y6K1) -0.032
DOCK6 (UniProt Q96HP0) -0.027
